This is one part of the list.
Experiments:
Experiment in all cases: log2 fold change, soluble protein after heating vs DMSO (PISA); higher = thermal stabilisation; K562 cells, 10 uM, 30 min; active = over 0.2 and 3.5 SD of the protein, either way, in both replicates (recomputed)
[1] = compound: C1=CC=C(C=C1)[C@H](COC2=CC3=C(C=C2)NC(=O)N3)NC(=O)C4=CC=CN(C4=O)CC5=CC(=C(C=C5)F)F
In short: (§1)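 K562 cells at 2×10^6 cells/mL were exposed to 10 μM compound for 30 min, then aliquots were heated for 3 min across 48°C-58°C, pooled, and extracted in PBS containing 0.5% NP-40 at 4°C. The supernatant after 21,000xg for 90 min was taken as soluble protein and measured by TMTpro 16plex LC-MS/MS with channel sums equalised. Thermal stability is reported relative to control samples, with values from duplicates. Fold changes are given on a log2 scale.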

Chains of the proteins cited; added tags and fusions are not shown. Lines headed by an entry give the natural chain unless they say otherwise; changes in a name come on top.
UniProt Q8N5I9: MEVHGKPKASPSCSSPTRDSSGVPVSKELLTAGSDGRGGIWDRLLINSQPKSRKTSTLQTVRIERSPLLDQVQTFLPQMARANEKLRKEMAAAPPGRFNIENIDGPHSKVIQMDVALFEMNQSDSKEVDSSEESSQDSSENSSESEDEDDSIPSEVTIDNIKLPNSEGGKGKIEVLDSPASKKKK
UniProt Q9Y6W3: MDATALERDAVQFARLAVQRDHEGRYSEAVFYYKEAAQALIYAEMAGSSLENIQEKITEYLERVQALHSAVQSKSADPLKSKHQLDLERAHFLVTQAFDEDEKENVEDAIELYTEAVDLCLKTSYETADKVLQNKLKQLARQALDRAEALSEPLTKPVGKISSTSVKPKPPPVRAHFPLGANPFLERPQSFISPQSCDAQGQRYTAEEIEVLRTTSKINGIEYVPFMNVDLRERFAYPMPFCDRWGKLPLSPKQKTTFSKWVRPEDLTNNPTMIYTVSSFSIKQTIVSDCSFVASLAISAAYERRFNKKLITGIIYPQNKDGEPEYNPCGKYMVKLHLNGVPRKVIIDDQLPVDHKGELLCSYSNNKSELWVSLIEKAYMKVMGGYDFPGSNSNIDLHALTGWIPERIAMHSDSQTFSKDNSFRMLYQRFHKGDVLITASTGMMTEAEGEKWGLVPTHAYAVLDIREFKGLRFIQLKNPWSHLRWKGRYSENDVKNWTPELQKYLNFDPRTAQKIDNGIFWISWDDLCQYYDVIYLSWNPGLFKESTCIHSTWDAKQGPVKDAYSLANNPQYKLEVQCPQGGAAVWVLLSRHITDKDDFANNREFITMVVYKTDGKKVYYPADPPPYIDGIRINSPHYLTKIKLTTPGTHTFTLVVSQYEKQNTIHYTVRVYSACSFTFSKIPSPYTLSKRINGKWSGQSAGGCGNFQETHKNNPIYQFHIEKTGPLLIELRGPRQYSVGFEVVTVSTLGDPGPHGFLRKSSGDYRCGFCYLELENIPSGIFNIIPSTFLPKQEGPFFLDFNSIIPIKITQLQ
UniProt O14981: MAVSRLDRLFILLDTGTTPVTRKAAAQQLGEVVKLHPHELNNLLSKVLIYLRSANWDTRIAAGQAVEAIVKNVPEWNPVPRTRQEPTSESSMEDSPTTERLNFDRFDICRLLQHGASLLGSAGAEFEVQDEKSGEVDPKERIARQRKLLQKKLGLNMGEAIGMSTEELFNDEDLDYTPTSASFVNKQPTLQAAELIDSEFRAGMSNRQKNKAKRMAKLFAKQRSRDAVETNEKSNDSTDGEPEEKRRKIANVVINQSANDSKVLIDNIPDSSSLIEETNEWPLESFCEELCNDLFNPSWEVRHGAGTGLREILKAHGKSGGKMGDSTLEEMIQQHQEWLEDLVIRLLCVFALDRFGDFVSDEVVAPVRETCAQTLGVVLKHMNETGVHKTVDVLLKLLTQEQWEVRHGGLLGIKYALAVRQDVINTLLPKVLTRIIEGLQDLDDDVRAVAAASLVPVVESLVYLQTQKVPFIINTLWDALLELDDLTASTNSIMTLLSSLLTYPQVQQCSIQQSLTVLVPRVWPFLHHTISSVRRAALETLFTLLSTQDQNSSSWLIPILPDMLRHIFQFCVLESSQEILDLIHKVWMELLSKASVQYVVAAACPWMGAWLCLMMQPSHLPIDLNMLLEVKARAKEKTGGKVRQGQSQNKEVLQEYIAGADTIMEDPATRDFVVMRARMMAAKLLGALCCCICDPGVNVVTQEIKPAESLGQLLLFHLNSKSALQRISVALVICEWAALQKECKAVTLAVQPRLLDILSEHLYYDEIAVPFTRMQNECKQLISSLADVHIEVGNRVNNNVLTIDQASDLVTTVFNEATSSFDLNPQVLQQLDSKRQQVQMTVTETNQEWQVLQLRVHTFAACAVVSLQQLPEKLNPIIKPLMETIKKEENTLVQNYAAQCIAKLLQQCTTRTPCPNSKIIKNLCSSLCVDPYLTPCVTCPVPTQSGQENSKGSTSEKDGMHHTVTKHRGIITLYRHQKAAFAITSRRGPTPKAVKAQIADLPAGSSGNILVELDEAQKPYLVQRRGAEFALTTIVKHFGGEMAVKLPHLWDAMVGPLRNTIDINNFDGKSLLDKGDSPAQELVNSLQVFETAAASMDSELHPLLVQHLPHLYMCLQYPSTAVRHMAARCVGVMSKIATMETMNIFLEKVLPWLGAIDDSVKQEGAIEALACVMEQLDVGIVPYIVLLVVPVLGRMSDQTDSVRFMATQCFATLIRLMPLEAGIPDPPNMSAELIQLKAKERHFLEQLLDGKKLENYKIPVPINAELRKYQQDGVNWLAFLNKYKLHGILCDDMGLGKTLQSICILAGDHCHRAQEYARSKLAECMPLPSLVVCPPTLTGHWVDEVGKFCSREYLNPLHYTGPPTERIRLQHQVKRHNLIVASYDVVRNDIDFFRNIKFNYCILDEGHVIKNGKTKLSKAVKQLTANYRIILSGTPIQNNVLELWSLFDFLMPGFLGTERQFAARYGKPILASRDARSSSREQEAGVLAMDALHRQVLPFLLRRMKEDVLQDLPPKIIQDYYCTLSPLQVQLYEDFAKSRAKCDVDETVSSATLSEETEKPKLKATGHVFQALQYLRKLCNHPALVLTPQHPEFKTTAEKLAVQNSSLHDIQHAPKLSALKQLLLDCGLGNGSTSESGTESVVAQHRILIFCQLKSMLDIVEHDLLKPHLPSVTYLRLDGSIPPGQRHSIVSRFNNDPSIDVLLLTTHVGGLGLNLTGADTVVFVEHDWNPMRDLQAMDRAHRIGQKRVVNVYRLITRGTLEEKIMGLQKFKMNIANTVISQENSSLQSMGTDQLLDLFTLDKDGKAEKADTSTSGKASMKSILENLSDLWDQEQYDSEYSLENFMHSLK
UniProt O60566, whole entry, looked up: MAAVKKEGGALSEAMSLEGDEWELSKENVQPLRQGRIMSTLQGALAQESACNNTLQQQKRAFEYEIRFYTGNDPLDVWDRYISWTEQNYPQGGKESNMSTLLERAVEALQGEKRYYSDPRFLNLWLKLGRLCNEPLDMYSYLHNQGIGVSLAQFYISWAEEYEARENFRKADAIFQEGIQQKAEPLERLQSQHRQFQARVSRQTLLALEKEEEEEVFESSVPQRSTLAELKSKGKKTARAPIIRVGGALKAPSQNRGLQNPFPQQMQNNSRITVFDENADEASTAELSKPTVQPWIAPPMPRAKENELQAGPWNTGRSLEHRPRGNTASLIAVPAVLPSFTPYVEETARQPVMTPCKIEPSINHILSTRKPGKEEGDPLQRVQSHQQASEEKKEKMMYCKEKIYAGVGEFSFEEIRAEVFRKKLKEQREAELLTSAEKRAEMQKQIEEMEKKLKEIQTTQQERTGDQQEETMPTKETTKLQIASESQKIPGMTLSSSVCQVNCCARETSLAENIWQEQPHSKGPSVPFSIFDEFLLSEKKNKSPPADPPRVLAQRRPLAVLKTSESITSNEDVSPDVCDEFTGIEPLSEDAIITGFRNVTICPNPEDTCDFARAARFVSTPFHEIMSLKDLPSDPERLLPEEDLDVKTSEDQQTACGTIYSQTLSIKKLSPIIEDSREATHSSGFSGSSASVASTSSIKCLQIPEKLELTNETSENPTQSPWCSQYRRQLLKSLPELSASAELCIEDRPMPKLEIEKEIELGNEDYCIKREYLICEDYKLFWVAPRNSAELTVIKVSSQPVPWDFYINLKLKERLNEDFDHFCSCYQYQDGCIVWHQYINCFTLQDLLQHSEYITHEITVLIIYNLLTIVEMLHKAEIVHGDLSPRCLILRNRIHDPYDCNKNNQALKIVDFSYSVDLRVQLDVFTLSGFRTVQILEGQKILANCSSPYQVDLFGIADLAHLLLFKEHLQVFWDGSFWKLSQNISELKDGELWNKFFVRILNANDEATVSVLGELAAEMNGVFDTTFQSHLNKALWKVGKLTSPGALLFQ
UniProt Q9BXL7: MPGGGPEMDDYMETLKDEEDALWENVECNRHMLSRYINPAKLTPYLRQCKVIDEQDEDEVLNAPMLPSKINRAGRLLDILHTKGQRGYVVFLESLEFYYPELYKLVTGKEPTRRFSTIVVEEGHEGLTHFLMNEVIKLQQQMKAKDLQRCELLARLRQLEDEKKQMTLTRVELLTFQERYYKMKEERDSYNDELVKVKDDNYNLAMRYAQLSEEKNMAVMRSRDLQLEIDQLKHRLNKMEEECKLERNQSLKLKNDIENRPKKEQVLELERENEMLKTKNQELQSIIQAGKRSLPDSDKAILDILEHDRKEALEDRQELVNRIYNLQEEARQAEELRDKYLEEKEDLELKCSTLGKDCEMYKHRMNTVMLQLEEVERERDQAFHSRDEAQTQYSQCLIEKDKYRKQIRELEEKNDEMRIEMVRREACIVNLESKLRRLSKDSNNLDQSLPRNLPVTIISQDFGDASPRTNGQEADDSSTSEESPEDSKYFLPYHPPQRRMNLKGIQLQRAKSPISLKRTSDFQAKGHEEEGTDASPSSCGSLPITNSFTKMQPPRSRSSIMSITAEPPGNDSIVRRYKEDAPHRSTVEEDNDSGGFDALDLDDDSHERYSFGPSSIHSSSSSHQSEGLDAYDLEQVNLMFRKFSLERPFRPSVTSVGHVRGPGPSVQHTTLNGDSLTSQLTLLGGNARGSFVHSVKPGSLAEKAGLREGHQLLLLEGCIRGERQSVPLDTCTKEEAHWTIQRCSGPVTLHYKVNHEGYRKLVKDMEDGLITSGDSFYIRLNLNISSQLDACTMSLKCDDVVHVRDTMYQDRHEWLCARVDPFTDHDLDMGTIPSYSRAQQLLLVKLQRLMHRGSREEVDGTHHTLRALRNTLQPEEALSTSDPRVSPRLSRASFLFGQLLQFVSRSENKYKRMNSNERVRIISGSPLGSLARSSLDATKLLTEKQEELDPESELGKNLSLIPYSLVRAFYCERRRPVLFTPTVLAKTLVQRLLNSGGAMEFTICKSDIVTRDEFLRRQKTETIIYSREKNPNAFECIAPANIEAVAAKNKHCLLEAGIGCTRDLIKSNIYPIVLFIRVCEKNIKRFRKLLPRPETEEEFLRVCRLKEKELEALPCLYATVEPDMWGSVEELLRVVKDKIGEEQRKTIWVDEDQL
UniProt Q9H9S4: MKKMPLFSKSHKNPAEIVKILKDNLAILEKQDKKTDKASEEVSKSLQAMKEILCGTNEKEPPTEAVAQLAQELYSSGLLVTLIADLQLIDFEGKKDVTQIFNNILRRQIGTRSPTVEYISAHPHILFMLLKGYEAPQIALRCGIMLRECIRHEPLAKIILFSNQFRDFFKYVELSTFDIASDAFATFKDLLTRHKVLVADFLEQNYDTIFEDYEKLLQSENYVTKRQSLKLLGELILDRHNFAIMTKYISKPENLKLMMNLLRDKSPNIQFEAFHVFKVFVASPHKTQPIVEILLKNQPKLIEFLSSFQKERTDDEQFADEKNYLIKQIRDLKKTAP
UniProt Q9Y2V0: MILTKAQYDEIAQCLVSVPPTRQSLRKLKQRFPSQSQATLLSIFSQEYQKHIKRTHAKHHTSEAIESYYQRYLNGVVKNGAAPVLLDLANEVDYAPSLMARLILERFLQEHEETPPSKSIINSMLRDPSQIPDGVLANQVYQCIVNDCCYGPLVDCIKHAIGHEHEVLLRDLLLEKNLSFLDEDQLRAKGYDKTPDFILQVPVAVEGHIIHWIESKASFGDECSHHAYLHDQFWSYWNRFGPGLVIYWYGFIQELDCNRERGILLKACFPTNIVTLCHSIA
UniProt P27482, whole entry, looked up: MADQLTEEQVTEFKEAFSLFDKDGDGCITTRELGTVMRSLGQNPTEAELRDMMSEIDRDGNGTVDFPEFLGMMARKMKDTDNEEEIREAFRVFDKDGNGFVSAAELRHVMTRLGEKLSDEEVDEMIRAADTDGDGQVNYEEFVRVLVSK
UniProt Q96GV9: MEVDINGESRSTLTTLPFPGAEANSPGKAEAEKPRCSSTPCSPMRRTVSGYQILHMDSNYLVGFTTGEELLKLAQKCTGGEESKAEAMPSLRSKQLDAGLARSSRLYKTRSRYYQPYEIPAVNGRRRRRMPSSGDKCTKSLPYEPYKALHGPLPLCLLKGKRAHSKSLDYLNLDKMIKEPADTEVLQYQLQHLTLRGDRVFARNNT
UniProt Q6PH81: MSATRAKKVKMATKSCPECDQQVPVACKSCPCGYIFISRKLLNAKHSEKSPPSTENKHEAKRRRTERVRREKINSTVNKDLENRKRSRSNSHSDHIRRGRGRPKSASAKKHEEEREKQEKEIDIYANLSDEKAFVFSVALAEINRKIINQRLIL
UniProt Q5BKX5: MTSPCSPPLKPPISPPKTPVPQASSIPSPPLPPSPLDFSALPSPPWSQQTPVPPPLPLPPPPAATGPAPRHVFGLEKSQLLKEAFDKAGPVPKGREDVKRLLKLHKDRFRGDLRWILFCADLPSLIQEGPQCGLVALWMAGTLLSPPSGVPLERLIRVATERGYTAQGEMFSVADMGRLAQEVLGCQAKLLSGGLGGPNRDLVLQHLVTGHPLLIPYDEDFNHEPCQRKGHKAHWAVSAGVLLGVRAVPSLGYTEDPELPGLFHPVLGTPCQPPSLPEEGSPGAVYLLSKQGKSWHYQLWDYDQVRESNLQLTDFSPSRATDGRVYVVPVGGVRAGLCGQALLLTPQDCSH

[2] = compound: CC1=C(SC2=C1C(=N[C@H](C3=NN=C(N32)C)CC(=O)N)C4=CC=C(C=C4)Cl)C
In short: as §1

[3] = compound: CC1=C2C(=CC=C1)N=C(N(C2=O)C3=CC=CC=C3C)CN4C=NC5=C(N=CN=C54)N
In short: as §1

[4] = compound: Cc1sc2c(c1C)C(c1ccc(Cl)cc1)=N[C@@H](CC(=O)OC(C)(C)C)c1nnc(C)n1-2
In short: as §1

[5] = compound: c1ccc([C@@H]2C[C@H]2NC2CCNCC2)cc1
In short: as §1

Measured: log2 fold change

C1orf122 (UniProt Q6ZSJ8)
inactive: [1] 0 | [2] 0.02 | [3] 0.078 | [4] -0.088 | [5] -0.04

C7 (UniProt P10643)
inactive: [1] -0.022 | [2] 0.076 | [3] 0.001 | [4] -0.072 | [5] -0.045

C6orf47 (UniProt O95873)
inactive: [1] 0.002 | [2] 0.077 | [3] 0.032 | [4] -0.025 | [5] 0.022

BYSL (UniProt Q13895)
inactive: [1] 0.001 | [2] -0.085 | [3] -0.09 | [4] 0.02 | [5] -0.042

C18orf25 isoform 2 (UniProt Q96B23)
inactive: [1] -0.006 | [2] 0.049 | [3] 0.074 | [4] 0.022 | [5] 0.097

CAD (UniProt P27708)
inactive: [1] -0.115 | [2] 0.048 | [3] -0.019 | [4] -0.005 | [5] -0.033

CANX isoform 2 (UniProt P27824)
inactive: [1] 0.078 | [2] -0.022 | [3] -0.04 | [4] 0.012 | [5] 0.018

C4orf33 (UniProt Q8N1A6)
inactive: [1] -0.041 | [2] 0.176 | [3] 0.066 | [4] 0.024 | [5] -0.003

BTN2A1 (UniProt Q7KYR7)
inactive: [1] 0.054 | [2] 0.154 | [3] 0.086 | [4] -0.131 | [5] -0.041

C12orf45 (UniProt Q8N5I9)
inactive: [1] 0.006 | [2] -0.003 | [3] 0.018 | [4] -0.016 | [5] 0.012

CAPN7 (UniProt Q9Y6W3)
inactive: [1] -0.046 | [2] 0.044 | [3] 0.014 | [4] 0.015 | [5] -0.016

BTAF1 (UniProt O14981)
inactive: [1] 0.051 | [2] -0.003 | [3] 0.124 | [4] 0.005 | [5] 0.055

CAMKK2 (UniProt Q96RR4)
inactive: [1] -0.047 | [2] 0.388 | [3] 0.023 | [4] 0.019 | [5] 0.149

C2orf49 (UniProt Q9BVC5)
inactive: [1] -0.074 | [2] -0.171 | [3] -0.106 | [4] 0.087 | [5] -0.088

BUB1B isoform 3 (UniProt O60566)
inactive: [1] -0.077 | [2] -0.004 | [3] 0.1 | [4] 0.01 | [5] -0.002

C20orf27 isoform 2 (UniProt Q9GZN8)
inactive: [1] 0.049 | [2] 0.054 | [3] 0.234 | [4] 0.017 | [5] 0.01

CARD11 (UniProt Q9BXL7)
inactive: [2] -0.003 | [5] -0.071

C8orf88 (UniProt P0DMB2)
inactive: [1] 0.083 | [2] 0.008 | [3] -0.149 | [5] 0.279

C11orf74 (UniProt Q86VG3)
inactive: [3] 0.114 | [4] -0.05

CAB39L (UniProt Q9H9S4)
inactive: [1] 0.088 | [3] 0.201 | [4] 0.285

CARD8 isoform 5 (UniProt Q9Y2G2)
inactive: [1] 0.012 | [3] 0.034 | [4] -0.045

C6orf136 isoform 4 (UniProt Q5SQH8)
inactive: [1] 0.178 | [4] -0.37

C15orf41 (UniProt Q9Y2V0)
inactive: [2] 0.081 | [3] 0.014 | [4] -0.011 | [5] 0.149

CALML3 (UniProt P27482)
inactive: [4] -0.481

C5orf30 (UniProt Q96GV9)
inactive: [4] -0.417

C11orf96 (UniProt Q7Z7L8)
inactive: [2] -0.221 | [3] -0.071 | [5] 0.179

BTK isoform 2 (UniProt Q06187)
inactive: [2] -0.082 | [3] 0.05 | [4] 0.251 | [5] -0.051

C22orf39 (UniProt Q6P5X5)
inactive: [1] 0.126 | [2] 0.145 | [4] -0.06 | [5] -0.037

C12orf65 (UniProt Q9H3J6)
inactive: [1] 0.05 | [2] -0.083 | [3] -0.321 | [5] 0.061

C5orf24 (UniProt Q7Z6I8)
inactive: [3] -0.109 | [4] 0.039

CALD1 (UniProt Q05682)
inactive: [2] -0.052 | [5] 0.011

C2orf76 (UniProt Q3KRA6)
inactive: [1] 0.042 | [3] 0.079 | [4] 0.053

Two records picked at random from those above:
C5orf30 (UniProt Q96GV9)
inactive: [4] -0.417

C20orf27 isoform 2 (UniProt Q9GZN8)
inactive: [1] 0.049 | [2] 0.054 | [3] 0.234 | [4] 0.017 | [5] 0.01

Later entries

C4BPA (UniProt P04003)
inactive: [1] 0.006 | [2] 0.236 | [4] 0.378 | [5] -0.474

C1orf112 (UniProt Q9NSG2)
inactive: [3] 0.141 | [4] -0.029

Quoted from the results shown (9 entries):
C15orf41 (UniProt Q9Y2V0)
inactive: [2] 0.081 | [3] 0.014 | [4] -0.011 | [5] 0.149

CALML3 (UniProt P27482)
inactive: [4] -0.481

C5orf30 (UniProt Q96GV9)
inactive: [4] -0.417

C11orf96 (UniProt Q7Z7L8)
inactive: [2] -0.221 | [3] -0.071 | [5] 0.179

BTK isoform 2 (UniProt Q06187)
inactive: [2] -0.082 | [3] 0.05 | [4] 0.251 | [5] -0.051

C22orf39 (UniProt Q6P5X5)
inactive: [1] 0.126 | [2] 0.145 | [4] -0.06 | [5] -0.037

C12orf65 (UniProt Q9H3J6)
inactive: [1] 0.05 | [2] -0.083 | [3] -0.321 | [5] 0.061

C5orf24 (UniProt Q7Z6I8)
inactive: [3] -0.109 | [4] 0.039

CALD1 (UniProt Q05682)
inactive: [2] -0.052 | [5] 0.011

The list continues:

C19orf12 (UniProt Q9NSK7)
inactive: [1] -0.04 | [4] -0.106

C12orf60 (UniProt Q5U649)
inactive: [1] -0.027 | [4] -0.269

C7orf50 (UniProt Q9BRJ6)
inactive: [2] -0.224 | [3] -0.17 | [4] 0.022 | [5] 0.105

C7orf26 (UniProt Q96N11)
inactive: [1] -0.021 | [3] 0.171

CA1 (UniProt E5RIF9)
inactive: [1] -0.021 | [3] 0.187 | [4] 0.143

C1D (UniProt Q13901)
inactive: [1] -0.019 | [3] 0.028 | [4] 0.074

C9 (UniProt P02748)
inactive: [2] 0.413 | [4] -0.027 | [5] -0.107

C5 (UniProt P01031)
inactive: [2] -0.211 | [3] 0.012 | [4] 0.107 | [5] 0.227

C16orf87 (UniProt Q6PH81)
inactive: [1] -0.037 | [3] 0.097

C8orf37 (UniProt Q96NL8)
inactive: [4] -0.039

C6orf120 (UniProt Q7Z4R8)
active: [3] 0.37
inactive: [1] -0.018 | [4] -0.038

C1orf159 isoform 4 (UniProt Q96HA4)
inactive: [1] 0.035 | [2] 0.111 | [3] 0.05 | [5] 0.45

C19orf54 (UniProt Q5BKX5)
inactive: [2] -0.014 | [3] 0.059 | [4] 0.004 | [5] 0.114

BSN (UniProt Q9UPA5)
inactive: [2] -0.007 | [3] 0.022 | [5] 0.08

CA2 (UniProt P00918)
inactive: [1] -0.056 | [3] 0.052 | [4] -0.023

C9orf85 isoform 1 (UniProt Q96MD7)
inactive: [2] 0.08 | [3] -0.066 | [4] 0.011 | [5] 0.299

BUD13 (UniProt Q9BRD0)
inactive: [2] -0.108 | [3] 0.042 | [4] 0.222 | [5] 0.068

BTRC (UniProt Q9Y297)
inactive: [1] -0.013 | [3] 0.242 | [4] 0.029

— the supplement of paper PMC10849652
